{"source": "PubChem BioAssay AID330", "about": "(DTP/NCI, 2004)", "test_system": "P388 leukemia ip, CD2F1 mice, survival T/C", "assay": "NCI In Vivo Anticancer Drug Screen. Data for tumor model P388 Leukemia (intraperitoneal) in CD2F1 (CDF1) mice", "settings": "T/C endpoint: median survival time, higher T/C = longer survival", "key": {"[1]": {"settings": "dose: 200.0 mg/kg/injection, schedule: Q01DX005 (ip), vehicle: saline"}, "[2]": {"settings": "dose: 50.0 mg/kg/injection, schedule: Q01DX005 (ip), vehicle: saline"}, "[3]": {"settings": "dose: 100.0 mg/kg/injection, schedule: Q01DX005 (ip), vehicle: saline"}, "[4]": {"settings": "dose: 0.1 mg/kg/injection, schedule: Q01DX009 (ip), vehicle: suspension in saline"}, "[5]": {"settings": "dose: 0.4 mg/kg/injection, schedule: Q01DX009 (ip), vehicle: saline"}}, "note": "The list is a part of this screen's results and no random one: it is rich in T/C values a quarter to a half above the control, in often repeated tests (any T/C) and in doses without a T/C. Further doses and runs are listed elsewhere. T/C is the treated group as % of the vehicle group. Some entries give survivors of the animals treated and no T/C: the source files T/C as zero there, which appears to mark a toxic dose or a test without result, not a measured value. Some survivor counts are full or nearly so, which does not show that the dose was tolerated: the source hardly ever lists a survival T/C far under the control, and the zero likely stands for such cases as well. Survivors were counted at the toxicity check, usually on the fifth day, unless a day is given; later deaths do not show. Schedules are NCI's codes, read here as Q, the interval in days (D) or hours (H), X, the number of doses. Some entries were tested several times; their values stand side by side, smallest first. For survival time, the PubChem record calls one and a half times the control and up active, and a quarter to a half above the control has no call in these data; cut-offs in other NCI protocols can differ. Some T/C values are followed by the survivors on the day toxicity was checked, most often the fifth; without a count, all were alive then.", "data": [{"compound": "COc1ccc2cc3cccc[n+]3cc2c1", "values": [{"measurement": "survivor count", "setting": "dose: 1.56 mg/kg/injection, schedule: Q01DX005 (ip), vehicle: Klucel (hydroxypropylcellulose) (HPC)", "value": "0 of 5"}, {"measurement": "survivor count", "setting": "dose: 3.12 mg/kg/injection, schedule: Q01DX005 (ip), vehicle: Klucel (hydroxypropylcellulose) (HPC)", "value": "0 of 5"}, {"measurement": "survivor count", "setting": "dose: 6.25 mg/kg/injection, schedule: Q01DX005 (ip), vehicle: Klucel (hydroxypropylcellulose) (HPC)", "value": "0 of 5"}, {"measurement": "survivor count", "setting": "dose: 12.5 mg/kg/injection, schedule: Q01DX005 (ip), vehicle: Klucel (hydroxypropylcellulose) (HPC)", "value": "0 of 5"}, {"measurement": "survivor count", "setting": "dose: 25.0 mg/kg/injection, schedule: Q01DX005 (ip), vehicle: Klucel (hydroxypropylcellulose) (HPC)", "value": "0 of 5"}, {"measurement": "survivor count", "setting": "dose: 50.0 mg/kg/injection, schedule: Q01DX005 (ip), vehicle: Klucel (hydroxypropylcellulose) (HPC)", "value": "0 of 5"}, {"measurement": "survivor count", "setting": "dose: 100.0 mg/kg/injection, schedule: Q01DX005 (ip), vehicle: Klucel (hydroxypropylcellulose) (HPC)", "value": "0 of 5"}, {"measurement": "survivor count", "setting": "dose: 200.0 mg/kg/injection, schedule: Q01DX005 (ip), vehicle: Klucel (hydroxypropylcellulose) (HPC)", "value": "0 of 5"}]}, {"compound": "CCNC1(N(C)C)N=C(N(C)C)N=C(N(C)C)O1", "note": "(stereo not given)", "values": [{"measurement": "survivor count", "setting": "[1]", "value": "0 of 6"}]}, {"compound": "COc1ccc(C(=O)C(CN(C)C)CN(C)C)cc1OC", "values": [{"measurement": "T/C", "setting": "[2]", "value": "126 % of control [5 of 6 alive]"}, {"measurement": "survivor count", "setting": "[2]", "value": "3 of 6"}, {"measurement": "survivor count", "setting": "[3]", "value": "0 of 5"}, {"measurement": "survivor count", "setting": "[1]", "value": "0 of 5"}]}, {"compound": "CS/C(=C/c1ccc2ccccc2[n+]1C)N1CCCC1", "values": [{"measurement": "survivor count", "setting": "dose: 3.13 mg/kg/injection, schedule: Q01DX005 (ip), vehicle: saline", "value": "0 of 5"}, {"measurement": "survivor count", "setting": "dose: 6.25 mg/kg/injection, schedule: Q01DX005 (ip), vehicle: saline", "value": "0 of 6"}, {"measurement": "survivor count", "setting": "dose: 12.5 mg/kg/injection, schedule: Q01DX005 (ip), vehicle: saline", "value": "0 of 6"}, {"measurement": "survivor count", "setting": "dose: 25.0 mg/kg/injection, schedule: Q01DX005 (ip), vehicle: saline", "value": "0 of 6"}, {"measurement": "survivor count", "setting": "[2]", "value": "0 of 6"}, {"measurement": "survivor count", "setting": "[3]", "value": "0 of 6"}, {"measurement": "survivor count", "setting": "[1]", "value": "0 of 6"}]}, {"compound": "C/C(=N\\N=c1\\sc2ccccc2n1CC(=O)O)c1ccc([N+](=O)[O-])cc1", "values": [{"measurement": "survivor count", "setting": "dose: 400.0 mg/kg/injection, schedule: Q01DX001 (ip), vehicle: saline with Tween-80", "value": "0 of 6"}]}, {"compound": "CNC(=O)/C=C/C1=CN2C(=O)c3ccc(C)c(O)c3NC(OC)C2C1", "note": "(stereo not given)", "values": [{"measurement": "survivor count", "setting": "dose: 0.02 mg/kg/injection, schedule: Q01DX009 (ip), vehicle: suspension in saline", "value": "6 of 6"}, {"measurement": "T/C", "setting": "dose: 0.05 mg/kg/injection, schedule: Q01DX009 (ip), vehicle: saline", "value": "144 % of control"}, {"measurement": "survivor count", "setting": "dose: 0.05 mg/kg/injection, schedule: Q01DX009 (ip), vehicle: suspension in saline", "value": "3 of 6"}, {"measurement": "T/C", "setting": "dose: 0.1 mg/kg/injection, schedule: Q01DX009 (ip), vehicle: saline, evaluated on day 20", "value": "144 % of control"}, {"measurement": "T/C", "setting": "dose: 0.1 mg/kg/injection, schedule: Q01DX009 (ip), vehicle: saline, evaluated on day 23", "value": "128 % of control"}, {"measurement": "T/C", "setting": "[4]", "value": "125 % of control"}, {"measurement": "survivor count", "setting": "[4]", "value": "0 of 6"}, {"measurement": "T/C", "setting": "dose: 0.2 mg/kg/injection, schedule: Q01DX009 (ip), vehicle: saline", "value": "138 % of control"}, {"measurement": "survivor count", "setting": "dose: 0.2 mg/kg/injection, schedule: Q01DX009 (ip), vehicle: suspension in saline", "value": "0 of 6"}, {"measurement": "T/C", "setting": "[5]", "value": "137 % of control"}, {"measurement": "survivor count", "setting": "[5]", "value": "5 of 5"}, {"measurement": "survivor count", "setting": "dose: 0.4 mg/kg/injection, schedule: Q01DX009 (ip), vehicle: suspension in saline", "value": "0 of 6 and 5 of 6"}, {"measurement": "survivor count", "setting": "dose: 0.8 mg/kg/injection, schedule: Q01DX009 (ip), vehicle: saline", "value": "0 of 5 and 6 of 6"}, {"measurement": "survivor count", "setting": "dose: 0.8 mg/kg/injection, schedule: Q01DX009 (ip), vehicle: suspension in saline", "value": "0 of 6 and 5 of 6"}]}]}
